Results reported in article PMC9406782.
No constants are given. Whether binding was seen depends on the method and setting. In cells and extracts the contact can be indirect. Some results given as binding are weak or reduced against the parent protein; the word gives no strength.

Amino acid sequences for entries named in this document (tags omitted). Residues count along the entry.
UniProt P19022, residues 160-906: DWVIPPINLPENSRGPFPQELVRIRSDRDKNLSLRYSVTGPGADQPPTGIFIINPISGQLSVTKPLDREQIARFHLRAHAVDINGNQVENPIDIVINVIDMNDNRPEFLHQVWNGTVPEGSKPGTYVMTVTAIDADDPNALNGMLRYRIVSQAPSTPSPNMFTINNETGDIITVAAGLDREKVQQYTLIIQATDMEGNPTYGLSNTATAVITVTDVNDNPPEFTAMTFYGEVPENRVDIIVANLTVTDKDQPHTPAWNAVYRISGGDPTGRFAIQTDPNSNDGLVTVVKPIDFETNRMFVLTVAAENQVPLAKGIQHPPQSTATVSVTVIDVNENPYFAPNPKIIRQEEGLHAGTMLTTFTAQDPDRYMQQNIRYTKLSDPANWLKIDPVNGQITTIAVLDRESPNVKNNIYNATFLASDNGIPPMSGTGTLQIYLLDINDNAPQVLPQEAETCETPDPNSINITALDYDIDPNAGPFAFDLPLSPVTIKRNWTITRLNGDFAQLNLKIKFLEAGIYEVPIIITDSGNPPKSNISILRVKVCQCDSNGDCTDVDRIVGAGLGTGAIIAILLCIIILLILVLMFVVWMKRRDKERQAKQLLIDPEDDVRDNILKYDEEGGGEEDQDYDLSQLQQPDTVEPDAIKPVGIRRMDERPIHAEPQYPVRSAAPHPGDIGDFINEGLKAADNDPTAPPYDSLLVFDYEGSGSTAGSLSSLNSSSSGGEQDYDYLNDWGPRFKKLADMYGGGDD
UniProt P35221: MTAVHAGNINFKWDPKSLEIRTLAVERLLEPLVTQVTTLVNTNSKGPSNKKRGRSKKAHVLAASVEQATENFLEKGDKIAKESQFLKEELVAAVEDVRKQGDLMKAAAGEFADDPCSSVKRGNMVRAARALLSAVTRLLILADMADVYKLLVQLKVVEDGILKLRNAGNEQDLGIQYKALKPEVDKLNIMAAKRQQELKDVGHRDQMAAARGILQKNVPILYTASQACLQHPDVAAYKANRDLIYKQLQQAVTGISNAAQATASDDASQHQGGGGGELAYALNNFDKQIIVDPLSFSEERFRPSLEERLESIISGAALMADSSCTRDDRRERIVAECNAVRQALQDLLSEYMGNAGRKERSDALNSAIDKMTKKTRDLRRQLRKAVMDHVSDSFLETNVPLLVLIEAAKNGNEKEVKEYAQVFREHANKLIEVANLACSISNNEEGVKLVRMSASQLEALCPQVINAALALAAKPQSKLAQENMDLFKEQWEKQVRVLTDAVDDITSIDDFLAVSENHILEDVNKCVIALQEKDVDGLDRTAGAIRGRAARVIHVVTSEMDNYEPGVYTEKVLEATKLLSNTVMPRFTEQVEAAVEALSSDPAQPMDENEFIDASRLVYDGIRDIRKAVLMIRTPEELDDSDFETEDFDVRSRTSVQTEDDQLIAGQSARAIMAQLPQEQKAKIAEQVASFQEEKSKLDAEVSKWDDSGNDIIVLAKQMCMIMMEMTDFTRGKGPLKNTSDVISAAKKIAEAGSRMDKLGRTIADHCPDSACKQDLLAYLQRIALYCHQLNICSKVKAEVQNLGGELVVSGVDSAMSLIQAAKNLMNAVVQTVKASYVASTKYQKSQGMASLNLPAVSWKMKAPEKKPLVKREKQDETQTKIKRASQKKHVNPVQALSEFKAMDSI
UniProt P35222: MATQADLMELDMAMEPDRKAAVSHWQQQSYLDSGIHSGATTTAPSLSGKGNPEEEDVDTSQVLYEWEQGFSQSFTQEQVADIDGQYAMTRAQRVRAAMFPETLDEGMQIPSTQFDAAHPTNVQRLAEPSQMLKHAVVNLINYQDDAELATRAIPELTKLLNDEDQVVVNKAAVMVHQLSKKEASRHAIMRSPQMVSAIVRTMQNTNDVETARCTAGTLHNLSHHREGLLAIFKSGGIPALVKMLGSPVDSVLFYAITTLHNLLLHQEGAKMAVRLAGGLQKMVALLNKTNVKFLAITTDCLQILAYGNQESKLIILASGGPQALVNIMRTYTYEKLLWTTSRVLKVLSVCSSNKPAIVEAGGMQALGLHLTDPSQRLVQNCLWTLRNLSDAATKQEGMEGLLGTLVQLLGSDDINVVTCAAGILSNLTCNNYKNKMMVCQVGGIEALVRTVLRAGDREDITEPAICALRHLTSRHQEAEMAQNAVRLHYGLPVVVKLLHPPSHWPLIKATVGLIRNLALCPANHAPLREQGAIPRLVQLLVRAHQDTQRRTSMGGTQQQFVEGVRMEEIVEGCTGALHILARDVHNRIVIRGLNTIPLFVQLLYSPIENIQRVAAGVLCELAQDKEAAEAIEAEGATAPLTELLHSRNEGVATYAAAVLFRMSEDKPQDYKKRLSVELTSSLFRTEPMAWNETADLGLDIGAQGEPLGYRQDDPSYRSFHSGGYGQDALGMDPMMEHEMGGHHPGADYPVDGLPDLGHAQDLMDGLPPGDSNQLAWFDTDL

Molecular target: N-cadherin (human (endogenous in PLC cells and in human HCC tissue)) (UniProt P19022)
Test: co-IP; whole-cell lysates of PLC cells; 1% Triton X-100, RIPA or Empigen immunoprecipitation buffers (150 mM NaCl, 5 mM EDTA or 0.5 mM CaCl2); antibodies against E- or N-cadherin on protein G/A magnetic beads, 4 °C overnight; SDS-PAGE and immunoblot; unrelated mouse myeloma IgG1 as control

| binding | Substance |
| --- | --- |
| binds | α-catenin (from UniProt P35221 1-906) |
| binds | β-catenin (from UniProt P35222 1-781) |
